Experimental data from patent US9743675B2, “Antimicrobial composition” (UNIVERSITY OF SURREY, priority 2009, dated 2017).
For at least one compound, name, drawing or mass did not settle the structure.

Tested on: Salmonella enterica
Assay: perlite assay, survival of Salmonella enterica: vanillin with dehydro-abietic acid (Example 1)
Format: cell-based
Conditions: DHAA alone, 20 mmol
Description: A 20 mmol solution of dehydroabietic acid in alcohol and water was also prepared.

CC(C)c1ccc2c(c1)CC[C@H]1[C@](C)(C(=O)O)CCC[C@]21C [Dehydro-Abietic acid, dehydroabietic acid]
anti-microbial activity: no significant anti-microbial activity
